This data set concerns plasma 24HC. As to the kind of experiment: Adult DEE patients: pharmacodynamics, plasma 24HC. Type of data set: in vivo, human. As to conditions: tablet. The method, then:
Blood sample collection and analyses for measuring 24HC was performed as previously described in example 5.

Structures are written as SMILES.

This is an account of results in patent publication US20250213547A1, “METHODS OF TREATING NEUROLOGICAL DISEASES” (priority 2022, published 2025).

Turning to `O=C(c1cccnc1-c1ccncc1)N1CCC(O)(Cc2ccccc2)CC1` [soticlestat], the “soticlestat steady-state AUC above which 24HC lowering plateaus” value is “greater than 800 ng×h/mL”.
